Measured values published in article PMC10290124 (Nature Communications, 2023).
These are yes or no findings as the source states them, for the method shown. Some entries that bind do so weakly or less than the wild type.

Amino acid sequences for entries named in this document (tags omitted).
UniProt Q9HBA0: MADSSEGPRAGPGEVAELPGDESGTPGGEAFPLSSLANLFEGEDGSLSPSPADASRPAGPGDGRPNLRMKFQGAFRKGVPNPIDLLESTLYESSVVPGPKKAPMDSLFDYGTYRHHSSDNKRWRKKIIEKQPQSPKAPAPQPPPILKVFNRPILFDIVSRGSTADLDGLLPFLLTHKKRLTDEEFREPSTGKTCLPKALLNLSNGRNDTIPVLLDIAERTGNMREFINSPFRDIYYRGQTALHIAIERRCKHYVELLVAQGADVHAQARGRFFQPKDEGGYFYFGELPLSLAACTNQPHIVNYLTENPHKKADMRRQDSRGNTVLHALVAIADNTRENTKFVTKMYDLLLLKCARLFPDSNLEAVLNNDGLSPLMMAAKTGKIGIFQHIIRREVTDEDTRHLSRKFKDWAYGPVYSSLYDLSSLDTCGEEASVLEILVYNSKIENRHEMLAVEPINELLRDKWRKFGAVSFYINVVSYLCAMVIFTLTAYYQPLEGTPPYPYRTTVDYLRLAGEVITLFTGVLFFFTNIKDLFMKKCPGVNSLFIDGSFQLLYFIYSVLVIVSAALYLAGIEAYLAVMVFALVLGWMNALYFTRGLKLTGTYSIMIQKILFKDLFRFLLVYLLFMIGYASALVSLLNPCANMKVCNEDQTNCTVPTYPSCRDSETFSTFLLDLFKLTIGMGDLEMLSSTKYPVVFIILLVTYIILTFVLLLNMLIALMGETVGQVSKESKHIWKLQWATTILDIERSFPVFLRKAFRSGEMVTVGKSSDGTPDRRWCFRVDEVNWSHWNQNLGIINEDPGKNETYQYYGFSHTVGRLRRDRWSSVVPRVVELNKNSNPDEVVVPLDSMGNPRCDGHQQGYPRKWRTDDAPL
UniProt P61586: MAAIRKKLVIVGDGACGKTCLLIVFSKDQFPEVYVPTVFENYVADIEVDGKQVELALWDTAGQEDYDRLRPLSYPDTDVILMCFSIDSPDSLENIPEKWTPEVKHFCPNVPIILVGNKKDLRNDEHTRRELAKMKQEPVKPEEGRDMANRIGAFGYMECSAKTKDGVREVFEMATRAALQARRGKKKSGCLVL

What was measured:
[1] = molecular target: full-length wild-type human TRPV4 (human) (UniProt Q9HBA0); test: cryo-EM structure; hTRPV4 purified from HEK 293S cells in GDN (20 mM Tris pH 8.0, 150 mM NaCl, 1 mM βME, 0.01% GDN) with endogenous RhoA carried along; apo state, no added ligands; grids frozen at 22 °C
[2] = molecular target: full-length wild-type human TRPV4 (human) (UniProt Q9HBA0); test: cryo-EM structure; hTRPV4 purified from HEK 293S cells in GDN with endogenous RhoA carried along; supplemented with 200 μM 4α-PDD and 10 mM GTPγS right before grid freezing; 22 °C
[3] = molecular target: full-length wild-type human TRPV4 (human) (UniProt Q9HBA0); test: cryo-EM structure; hTRPV4 purified from HEK 293S cells in GDN with endogenous RhoA carried along; supplemented with 200 μM HC-067047, incubated 10 min at room temperature; grids frozen at 4 °C

Measured: binding

small GTPase RhoA (from UniProt P61586 1-193)
binds: all assays above
